Results reported in publication PMC6068238.

What was measured:
[1] = molecular target: T1, RsaL (yeast two-hybrid) (Pseudomonas aeruginosa (work done on strain PA1201)) (UniProt Q9X7H4); assay: two-hybrid; Matchmaker Gold Yeast System (Clontech), yeast strain AH109; QslA in the prey vector pGADT7, baits in pGBKT7; growth for 3 days at 30°C on SD-Leu-Trp-His and SD-Leu-Trp-His-Ade plates
T1 sequence: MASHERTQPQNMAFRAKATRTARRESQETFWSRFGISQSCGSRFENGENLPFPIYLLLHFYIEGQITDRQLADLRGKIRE

[2] = molecular target: T2, LasR (yeast two-hybrid) (Pseudomonas aeruginosa (work done on strain PA1201)) (UniProt P25084); assay: as above
T2 sequence: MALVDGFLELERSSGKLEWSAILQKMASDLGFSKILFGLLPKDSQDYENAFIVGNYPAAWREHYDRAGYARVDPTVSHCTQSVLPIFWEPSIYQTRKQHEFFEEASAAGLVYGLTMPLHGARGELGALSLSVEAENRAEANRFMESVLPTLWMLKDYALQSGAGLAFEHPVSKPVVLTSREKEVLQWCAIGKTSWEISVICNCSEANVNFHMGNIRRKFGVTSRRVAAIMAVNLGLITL

## QslA (yeast two-hybrid prey, pGADT7) (Pseudomonas aeruginosa strain PA1201)
[1]
  binding: no binding
[2]
  binding: binds weakly

Results are given in words; binding and its absence hold for the method and conditions named. For some assays here: A result given as binding can be weak or reduced; the word gives no strength.
